PubChem BioAssay AID1259254 – NCATS | 2017

Assay: 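Finding genes that stop cells copying their DNA twice in one cycle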 (primary screen)
Cells: human HCT116 colorectal cancer cells
Reagents: single siRNA against human genes
Timing: 3 days
Measured: 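Imaged Hoechst DNA stain sorts each cell into a cycle phase by DNA amount; per plate, G2 fraction set to 0% for non-targeting and 100% for GMNN siRNA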
Reading the numbers: G2 robust z-score and G2 cells, % of GMNN control: higher = more G2 cells, more excess DNA replication
Active means: 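An siRNA counts as active if its G2 robust z-score lies at least 5 MADs above the screen median; here such calls match roughly 38% of GMNN control or more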
The deposit covers about 59,000 reagents; below is an unselected part. In the full data, about 1,550 (2.6%) got an active call. 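G2 share is only a proxy for re-replication; each gene was hit by three separate siRNAs, and active genes were retested.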 Entries without a mark were called inactive. Reagents against one gene are numbered here. Further read-outs or replicates are left out here. Not given: the amount of reagent.

AP1S1 #1 → G2 robust z-score: -0.603; G2 cells, % of GMNN control: -1.28
AP1S1 #2 → G2 robust z-score: 1.17; G2 cells, % of GMNN control: 11.2
AP1S1 #3 → G2 robust z-score: -1.34; G2 cells, % of GMNN control: -6.47
FAM13B #1 → G2 robust z-score: -0.387; G2 cells, % of GMNN control: 0.242
FAM13B #2 → G2 robust z-score: -0.0708; G2 cells, % of GMNN control: 2.47
FAM13B #3 → G2 robust z-score: 3.01; G2 cells, % of GMNN control: 24.2
INTU #1 → G2 robust z-score: 1.24; G2 cells, % of GMNN control: 11.7
INTU #2 → G2 robust z-score: -0.502; G2 cells, % of GMNN control: -0.567
INTU #3 → G2 robust z-score: -0.0855; G2 cells, % of GMNN control: 2.37
RILP #1 → G2 robust z-score: -0.458; G2 cells, % of GMNN control: -0.256
RILP #2 → G2 robust z-score: -0.418; G2 cells, % of GMNN control: 0.0235
RILP #3 → G2 robust z-score: -0.719; G2 cells, % of GMNN control: -2.09
ARF1 #1 → G2 robust z-score: 0.366; G2 cells, % of GMNN control: 5.54
ARF1 #2 → G2 robust z-score: -0.369; G2 cells, % of GMNN control: 0.371
ARF1 #3 → G2 robust z-score: 4.99; G2 cells, % of GMNN control: 38
NELFA #1 → G2 robust z-score: 1.06; G2 cells, % of GMNN control: 10.4
NELFA #2 → G2 robust z-score: -0.157; G2 cells, % of GMNN control: 1.86
NELFA #3 → G2 robust z-score: 0.0635; G2 cells, % of GMNN control: 3.41
HRH4 #1 → G2 robust z-score: -0.494; G2 cells, % of GMNN control: -0.506
HRH4 #2 → G2 robust z-score: 1.56; G2 cells, % of GMNN control: 13.9
HRH4 #3 → G2 robust z-score: -0.247; G2 cells, % of GMNN control: 1.23
RFK #1 → G2 robust z-score: 2.68; G2 cells, % of GMNN control: 21.8
RFK #2 → G2 robust z-score: -0.645; G2 cells, % of GMNN control: -1.57
RFK #3 → G2 robust z-score: -0.104; G2 cells, % of GMNN control: 2.24

Targets above whose gene name begins with N or n:
NELFA #1 → G2 robust z-score: 1.06; G2 cells, % of GMNN control: 10.4
NELFA #2 → G2 robust z-score: -0.157; G2 cells, % of GMNN control: 1.86
NELFA #3 → G2 robust z-score: 0.0635; G2 cells, % of GMNN control: 3.41
